From patent publication US20190127441A1
Results are given in words; binding and its absence hold for the method and conditions named. In cells and extracts the contact can be indirect. Some entries that bind do so weakly or less than the wild type. Tags and fused reporters may be left off the sequences shown.

Target: T1, endogenous ERGIC-53 secreted from JUNV C#1 infected or mock infected HEK cells (Homo sapiens) (UniProt P49257)
T1 sequence: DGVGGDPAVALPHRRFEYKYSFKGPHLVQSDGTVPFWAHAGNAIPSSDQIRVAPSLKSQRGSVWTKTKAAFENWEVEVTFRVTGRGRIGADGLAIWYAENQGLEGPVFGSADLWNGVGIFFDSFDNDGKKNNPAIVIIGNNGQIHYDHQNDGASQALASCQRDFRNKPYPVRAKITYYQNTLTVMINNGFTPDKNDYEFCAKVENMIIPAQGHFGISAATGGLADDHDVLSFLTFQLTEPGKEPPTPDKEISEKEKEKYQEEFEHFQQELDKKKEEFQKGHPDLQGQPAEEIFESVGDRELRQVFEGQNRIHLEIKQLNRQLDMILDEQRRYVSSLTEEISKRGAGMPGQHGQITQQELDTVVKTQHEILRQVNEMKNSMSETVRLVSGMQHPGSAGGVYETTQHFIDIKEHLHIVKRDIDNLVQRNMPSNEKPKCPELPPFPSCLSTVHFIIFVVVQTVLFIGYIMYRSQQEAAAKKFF
Assay: co-immunoprecipitation from culture supernatant, Western blot

B1: soluble recombinant MCFD2 (sMCFD2), 6x His and MYC tagged, purified from HEK293T supernatant (protein)
chain: EEPAASFSQPGSMGLDKNTVHDQEHIMEHLEGVINKPEAEMSPQELQLHYFKMHDYDGNNLLDGLELSTAITHVHKEEGSEQAPLMSEDELINIIDGVLRDDDKNNDGYIDYAEFAKSLQ
  binding: binds
